Results as given in article PMC6599020.
No constants are given. Whether binding was seen depends on the method and setting. In cells and extracts the contact can be indirect. A yes stands for co-enrichment or nearness to the bait. Other partners may have been found.

Protein sequences, listed by entry. Tags and fused reporters are not part of them.
UniProt P11142: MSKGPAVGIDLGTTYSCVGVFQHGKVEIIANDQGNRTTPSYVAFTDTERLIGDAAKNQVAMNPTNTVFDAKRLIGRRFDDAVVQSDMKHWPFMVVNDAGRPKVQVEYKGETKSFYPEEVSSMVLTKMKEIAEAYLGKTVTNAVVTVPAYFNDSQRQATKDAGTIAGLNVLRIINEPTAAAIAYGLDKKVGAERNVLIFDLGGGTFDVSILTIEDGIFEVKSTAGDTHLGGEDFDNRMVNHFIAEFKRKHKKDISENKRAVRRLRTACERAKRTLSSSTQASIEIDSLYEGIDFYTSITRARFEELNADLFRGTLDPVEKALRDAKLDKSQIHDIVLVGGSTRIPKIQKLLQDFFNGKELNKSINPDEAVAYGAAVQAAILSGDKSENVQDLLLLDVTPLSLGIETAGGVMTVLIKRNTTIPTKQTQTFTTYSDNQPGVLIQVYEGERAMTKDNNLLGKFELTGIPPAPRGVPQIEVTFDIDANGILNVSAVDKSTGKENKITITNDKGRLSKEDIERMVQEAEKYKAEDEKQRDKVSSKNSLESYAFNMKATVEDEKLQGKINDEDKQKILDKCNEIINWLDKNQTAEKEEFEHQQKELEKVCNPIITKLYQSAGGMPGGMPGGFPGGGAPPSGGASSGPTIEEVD

Target: 3×-FLAG-ΔNLS-DEDD (cytosolic Death Effector Domain-containing DNA-binding protein with substitution mutations in all three nuclear localization sequences) (human) (UniProt O75618)
Test: affinity purification with mass spectrometry; anti-FLAG (F1804)-coupled Dynabeads immunoprecipitation of 3×-FLAG-ΔNLS-DEDD from lysate of lentivirally infected cells (Dynabeads Co-IP kit extraction buffer, 4 °C, 1 h); anti-mouse IgG1 beads as control; co-precipitated proteins analysed by mass spectrometry

## heat-shock cognate 71 kDa protein (HSC70) (from UniProt P11142 1-646)
  binding: binds
